Patent US9974865B2 (AGENSYS, INC., priority 2015, dated 2018)

Assay: general procedure: solution-phase peptide synthesis; HATU/DIEA; DEPC/DIEA

Substance	step yield (late stage modification step, TFA salt) [%]	step yield (coupling step, formic acid salt) [%]
(2S,3S)—N-((3R,4S,5S)-1-((S)-2-((1R,2R)-3-(((S)-1-amino-1-oxo-3-phenylpropan-2-yl)amino)-1-methoxy-2-methyl-3-oxopropyl)pyrrolidin-1-yl)-3-methoxy-5-methyl-1-oxoheptan-4-yl)-3-azido-N-methyl-2-((S)-3-methyl-2-(methylamino)butanamido)butanamide	79	
Fmoc-MeVal-Abu(3-N3)-Dil-Dap-Phe-NH2		75
